Construct, isoform or probe ends are uncertain for at least one entry. Protein sequences can lack the tags named with them.

The test system of the data set is T1, EdeB (ParB family protein) (Brevibacillus brevis X23).
T1 sequence (looked up): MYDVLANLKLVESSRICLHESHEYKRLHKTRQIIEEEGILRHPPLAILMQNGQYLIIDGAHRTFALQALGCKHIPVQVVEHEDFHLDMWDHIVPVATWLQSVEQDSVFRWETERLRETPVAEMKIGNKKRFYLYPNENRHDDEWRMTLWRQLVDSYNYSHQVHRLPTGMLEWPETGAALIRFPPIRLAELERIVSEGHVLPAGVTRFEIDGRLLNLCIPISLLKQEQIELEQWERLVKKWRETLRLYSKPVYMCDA
Put plainly: EMSA. Particulars: salmon sperm DNA as nonspecific competitor, 5 mM MgCl2, 50 mM EDTA (so in the source); 10 mM Tris pH 7.5, 5 mM MgCl2, 50 mM EDTA, 60 mM KCl, 10 mM DTT, 10% glycerol, sheared salmon sperm DNA, 20 uL, on ice 10 min; 8% TBE PAGE, 0.5x TBE; recombinant protein; residues 1-256; protein details: C-terminal His6 (from primer edeB-R, pET28a); label: 6-FAM 5' end; probe letters rebuilt from the primers and the genome. In general terms: Mobility shift assays separate free from complexed probe on a gel.

As to “CCATTCTATGCAGCGCTAGAAAATGGAAAAAAGAGATGGAATTCATCTAATTTTCAGAAATAACATTTAATGGAAAATTCATTTGACACTATAGAAGAGTCATCGATATAGTTGGGATGGAAGTATTTGTAATCAATTAGATTTTTTGCCATATCCGAATTGTGATTACATCTGCACAATTCCGAAAGGGGGGAAATGCATTGCATCAGGATAAGAAGC (double strand) [edePro (ede BGC promoter)]”, the binding result was “binds”.
